The source of these data is patent US4749687A (Pfizer Inc., priority 1985, dated 1988).

A short description of this data set: general procedure: solution-phase peptide synthesis; 1-cyclohexyl-3-(2-morpholinoethyl)carbodiimide metho-p-toluene sulfonate / N-hyd.

Some peptides are written in HELM: one residue between dots, names in brackets for other building blocks, links after the first $.

With “Histidine-Benzyloxycarbonylaminostatine-Isoleucine -Phenylalanine Benzyl Ester Hydrochloride”, for the setting “late stage modification step”, the step yield was 86%.
Still for that read-out and setting: to “PEPTIDE1{[Boc].F.H.[Sta].A.[Sta].E}$$$$V2.0” belongs 72%.
Still for that read-out and setting: the value for “PEPTIDE1{[Boc].F.H.[Sta].[IleCH2NHPhe]}$$$$V2.0” was 84%.
Under “coupling step”, “[N-(t-butyloxycarbonyl)-Phe]-N-methyl-His-Sta-Ile-Phe-benzyl ester” showed a step yield of 57%.
Substance “[N-im-(t-butyloxycarbonyl)-N-methyl Histidine]-Sta Ile-Phe-benzyl ester” gave a step yield (coupling step) of 62%.
